# For at least one compound, name, drawing or mass did not settle the structure.
# Sequences of proteins named here, by UniProt entry; tags and fusion partners are left off. Residues count along the entry.
# UniProt P06213, 28-746 isoform P06213-2 limits assumed: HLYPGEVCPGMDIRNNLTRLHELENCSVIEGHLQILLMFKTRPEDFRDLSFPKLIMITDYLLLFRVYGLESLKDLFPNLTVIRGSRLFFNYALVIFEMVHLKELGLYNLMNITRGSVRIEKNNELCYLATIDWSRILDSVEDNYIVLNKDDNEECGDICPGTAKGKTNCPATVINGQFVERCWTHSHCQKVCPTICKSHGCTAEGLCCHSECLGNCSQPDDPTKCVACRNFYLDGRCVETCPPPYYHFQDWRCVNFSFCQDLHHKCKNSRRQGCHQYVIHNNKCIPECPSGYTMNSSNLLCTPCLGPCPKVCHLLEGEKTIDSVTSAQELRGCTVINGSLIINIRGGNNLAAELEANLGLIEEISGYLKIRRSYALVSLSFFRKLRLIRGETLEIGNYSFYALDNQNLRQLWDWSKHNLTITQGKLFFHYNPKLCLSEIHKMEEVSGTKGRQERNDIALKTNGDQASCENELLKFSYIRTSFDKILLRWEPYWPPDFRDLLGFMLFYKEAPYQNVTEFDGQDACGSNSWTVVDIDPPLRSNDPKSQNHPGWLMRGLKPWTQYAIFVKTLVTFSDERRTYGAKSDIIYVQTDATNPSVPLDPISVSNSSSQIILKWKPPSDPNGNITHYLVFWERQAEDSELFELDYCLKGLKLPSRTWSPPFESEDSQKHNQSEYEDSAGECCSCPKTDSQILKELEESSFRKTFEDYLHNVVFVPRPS
# UniProt P06213, 763-1382 partner limits assumed: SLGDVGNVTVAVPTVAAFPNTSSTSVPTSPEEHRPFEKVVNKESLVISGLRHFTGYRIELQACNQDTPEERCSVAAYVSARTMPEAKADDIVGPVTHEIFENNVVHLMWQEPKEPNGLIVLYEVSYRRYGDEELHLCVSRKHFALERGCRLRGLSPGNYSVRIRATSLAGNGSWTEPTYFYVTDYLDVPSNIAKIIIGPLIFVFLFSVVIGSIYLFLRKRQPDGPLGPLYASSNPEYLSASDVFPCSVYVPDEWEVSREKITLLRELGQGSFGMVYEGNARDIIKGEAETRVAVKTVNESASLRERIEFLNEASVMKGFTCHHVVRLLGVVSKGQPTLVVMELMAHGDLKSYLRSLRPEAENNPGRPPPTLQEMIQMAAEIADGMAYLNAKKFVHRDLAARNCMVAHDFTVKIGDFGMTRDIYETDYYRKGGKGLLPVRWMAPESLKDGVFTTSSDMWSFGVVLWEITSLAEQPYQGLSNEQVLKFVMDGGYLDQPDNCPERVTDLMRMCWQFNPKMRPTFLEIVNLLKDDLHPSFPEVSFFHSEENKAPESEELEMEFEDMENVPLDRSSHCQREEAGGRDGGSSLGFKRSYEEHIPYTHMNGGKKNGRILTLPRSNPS
# Tests used:
# [1] = Hydrophobicity (hydrophobic index) k'rel relative to human insulin by isocratic RP-HPLC; assay type: physicochemical; details: LiChrosorb RP18 HPLC, isocratic elution at 40° C., pH 7.3
# human insulin receptor = human insulin receptor (Homo sapiens, UniProt P06213); experiment: Insulin receptor binding, SPA antibody capture assay; details: recombinant human insulin receptor, A14 Tyr[125I]-human insulin
# [2] = Self-association analysed by size exclusion chromatography (SEC); assay type: physicochemical; details: SEC Superose 6 PC, 37° C., pH 7.5
structure (smiles),measurement,setting,value
"CC[C@H](C)[C@H](NC(=O)CN)C(=O)N[C@H](C(=O)N[C@@H](CCC(=O)O)C(=O)N[C@@H](CCC(N)=O)C(=O)N[C@H]1CSSC[C@@H]2NC(=O)[C@H]([C@@H](C)CC)NC(=O)[C@H](CO)NC(=O)[C@H]([C@@H](C)O)NC(=O)[C@H](CSSC[C@H](NC(=O)[C@H](CC(C)C)NC(=O)[C@H](Cc3c[nH]cn3)NC(=O)[C@H](CCC(N)=O)NC(=O)[C@H](CC(N)=O)NC(=O)[C@@H](NC(=O)[C@@H](N)Cc3ccccc3)C(C)C)C(=O)NCC(=O)N[C@@H](CO)C(=O)N[C@@H](Cc3c[nH]cn3)C(=O)N[C@@H](CC(C)C)C(=O)N[C@@H](C(C)C)C(=O)N[C@@H](CCC(=O)O)C(=O)N[C@@H](C)C(=O)N[C@@H](CC(C)C)C(=O)N[C@@H](Cc3ccc(O)cc3)C(=O)N[C@@H](CC(C)C)C(=O)N[C@@H](C(C)C)C(=O)N[C@H](C(=O)NCC(=O)N[C@@H](CCC(=O)O)C(=O)N[C@@H](CCCNC(=N)N)C(=O)NCC(=O)N[C@@H](Cc3ccccc3)C(=O)N[C@@H](Cc3ccccc3)C(=O)N[C@@H](Cc3ccc(O)cc3)C(=O)N[C@H](C(=O)N3CCC[C@H]3C(=O)N[C@@H](CCCCNC(=O)CNCC(=O)NCCCCCCCCCCCCCCC(=O)O)C(=O)O)[C@@H](C)O)CSSC[C@@H](C(=O)N[C@@H](CC(N)=O)C(=O)O)NC(=O)[C@H](Cc3ccc(O)cc3)NC(=O)[C@H](CC(N)=O)NC(=O)[C@H](CCC(=O)O)NC(=O)[C@H](CC(C)C)NC(=O)[C@H](CCC(N)=O)NC(=O)[C@H](Cc3ccc(O)cc3)NC(=O)[C@H](CC(C)C)NC(=O)[C@H](CO)NC2=O)NC1=O)C(C)C [Example 3, N^εB29-(2-{[(14-Carboxytetradecylcarbamoyl)methyl]amino}acetyl)desB30 human insulin]",Hydrophobicity relative to human insulin,[1],2.4
same,Insulin receptor affinity relative to human insulin,human insulin receptor,28%
same,Self-association: Kav,"[2]; 0.6 mM derivative, 2.1 Zn2+/hexamer, 16 mM phenol, 7 mM phosphate pH 7.8",0.15
same,Self-association: % area of peak,[2]; area of the peak at the stated Kav,77%

# Source: patent US8710000B2, “Insulin derivative” (Novo Nordisk A/S, priority 2007, dated 2014)
